Measurements reported in PubChem BioAssay AID743456 (Peter MacCallum Cancer Centre, 2014)
Assay: 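Mimic library tested for viability and apoptosis changes under vorinostat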 (primary screen). Cells: human HCT116-VR colon cancer cells, a vorinostat-resistant HCT116 line. Reagent: miRNA mimic. Timing: about 3 days from transfection to readout; drug present for the last 24 h. Challenge: vorinostat at 2.5 µM final for 24 h. Read-out: 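Cell viability from CellTiter-Fluor signal and caspase activity from luminescence after 24 h vorinostat at 2.5 µM, given as robust z-scores and as ratios to mock-transfected wells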. Reading the numbers: viability robust z-score: higher = more viable cells; caspase robust z-score: higher = more caspase activity, more apoptosis. Rule for the call: 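a mimic counts as active if it lands in a lowered-viability class or a caspase-activation class; wells with too few cells without drug are left out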.
Here is an unselected part of 878 reagents tested. 27 of all reagents (3.1%) count as active. 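27 mimics are marked active, unlike an earlier stated count of 24; the viability threshold is described inconsistently.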 Further read-outs or replicates are left out here. Not given: the amount of reagent.

hsa-miR-924 scored viability robust z-score -0.52; caspase robust z-score -0.97; viability hit class no change; caspase hit class no change; inactive.
For hsa-miR-29a*, the entry reads viability robust z-score 1.63; caspase robust z-score -0.72; viability hit class no change; caspase hit class no change; inactive.
For hsa-miR-182, the values are viability robust z-score -0.12; caspase robust z-score 0.12; viability hit class no change; caspase hit class no change; inactive.
With hsa-miR-525-3p, the entry reads viability robust z-score 0.07; caspase robust z-score 0.5; viability hit class no change; caspase hit class no change; inactive.
With hsa-miR-24-1* the deposit lists viability robust z-score 0.15; caspase robust z-score 2.41; viability hit class no change; caspase hit class no change; inactive.
hsa-miR-29c showed viability robust z-score -0.36; caspase robust z-score -0.94; viability hit class no change; caspase hit class no change; inactive.
For hsa-miR-1308 the deposit lists viability robust z-score 0.2; caspase robust z-score -0.72; viability hit class no change; caspase hit class no change; inactive.
hsa-miR-452 scored viability robust z-score 0.36; caspase robust z-score 0.04; viability hit class no change; caspase hit class no change; inactive.
hsa-miR-1972 scored viability robust z-score -0.2; caspase robust z-score 2.67; viability hit class no change; caspase hit class no change; inactive.
hsa-miR-139-5p showed viability robust z-score 0.52; caspase robust z-score -0.5; viability hit class no change; caspase hit class no change; inactive.
With hsa-miR-630, the entry reads viability robust z-score -2.06; caspase robust z-score 3.3; viability hit class no change; caspase hit class no change; inactive.
With hsa-miR-126, the entry reads viability robust z-score -0.61; caspase robust z-score -0.75; viability hit class no change; caspase hit class no change; inactive.

2 entries already listed, ordered by “caspase robust z-score”, descending.
hsa-miR-452 | viability robust z-score: 0.36; caspase robust z-score: 0.04; viability hit class: no change; caspase hit class: no change; outcome: inactive
hsa-miR-1308 | viability robust z-score: 0.2; caspase robust z-score: -0.72; viability hit class: no change; caspase hit class: no change; outcome: inactive
